According to article doi:10.1101/2024.05.23.595269:
No constants are given. Whether binding was seen depends on the method and setting. In cells and extracts the contact can be indirect. Binding calls can cover weak binding; strength is not graded here.

Experiments:
[1] = molecular target: T1, full-length light chain 5 (MLC-5) (C. elegans) (UniProt Q9XVI9); experiment: affinity co-purification
T1 sequence: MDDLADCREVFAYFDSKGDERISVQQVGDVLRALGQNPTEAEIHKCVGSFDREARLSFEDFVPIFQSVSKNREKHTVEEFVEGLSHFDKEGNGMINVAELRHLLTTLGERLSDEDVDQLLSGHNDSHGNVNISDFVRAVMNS

[2] = molecular target: T2, full-length light chain 4 (MLC-4) (C. elegans) (UniProt Q09510); experiment: affinity co-purification
T2 sequence: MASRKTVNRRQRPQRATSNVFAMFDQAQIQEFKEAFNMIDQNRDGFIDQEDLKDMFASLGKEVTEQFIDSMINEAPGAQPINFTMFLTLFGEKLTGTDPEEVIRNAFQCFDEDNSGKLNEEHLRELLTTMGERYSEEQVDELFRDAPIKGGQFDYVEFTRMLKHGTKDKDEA

binding [1]: binds
binding [2]: binds
Substance: heavy meromyosin (HMM) fragment of C. elegans NMY-2 (1-1364 aa) (domain or fragment)
